In publication PMC3793970:
No constants are given. Whether binding was seen depends on the method and setting.

The chains behind the UniProt entries cited, without tags or fusion partners. Where a name states a change or a piece, a line headed by the entry shows the natural chain unless it says otherwise. Residues count along the entry.
UniProt P25054, residues 1202-1551: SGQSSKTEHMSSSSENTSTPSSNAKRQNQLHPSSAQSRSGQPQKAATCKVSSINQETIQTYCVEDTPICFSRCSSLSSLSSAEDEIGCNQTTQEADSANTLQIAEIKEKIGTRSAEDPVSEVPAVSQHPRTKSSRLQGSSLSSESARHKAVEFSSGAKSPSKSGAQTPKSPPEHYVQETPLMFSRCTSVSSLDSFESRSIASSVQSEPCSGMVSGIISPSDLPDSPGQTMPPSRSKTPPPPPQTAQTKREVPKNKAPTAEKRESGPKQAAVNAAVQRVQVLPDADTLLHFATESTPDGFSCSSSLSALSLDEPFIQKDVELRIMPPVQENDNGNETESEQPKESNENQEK

Molecular target: ySUMO-APC-MCR fusion protein (Adenomatous Polyposis Coli Mutation Cluster Region, APC-S1202-K1551) (human) (UniProt P25054)
Assay: SEC-MALS; 10 µl of 50 µM ySUMO-APC-MCR injected on Superdex 200 5/150 GL, 0.2 ml/min, 20 mM Tris pH 8, 200 mM KCl, 0.8 mM TCEP; miniDAWN TREOS detector; both purified

With “ySUMO-APC-MCR fusion protein (Adenomatous Polyposis Coli Mutation Cluster Region, APC-S1202-K1551) (from UniProt P25054 1202-1551) (domain or fragment)” the binding was “no binding (tested: 50 µM)”.
